Source: PubChem BioAssay AID330 (DTP/NCI, 2004)
The list shows only some results of the screen, not a fair sample: it is rich in T/C values a quarter to a half above the control, in often repeated tests (any T/C) and in doses without a T/C. Other doses and runs of a compound stand elsewhere. T/C gives the treated animals as a percentage of the vehicle group. Some doses have a count of surviving animals in place of a T/C: the source files T/C as zero there, which appears to mark a toxic dose or a test without result, not a measured value. Some survivor counts are full or nearly so, which does not show that the dose was tolerated: survival well below the control is almost never listed, so the zero probably covers shortened survival too. Survivors were counted at the toxicity check, usually on the fifth day, unless a day is given; later deaths do not show. Schedule codes are those of the source, taken here to give the interval after Q, in days (D) or hours (H), and the number of doses after X. Some structures stand for samples that the source files as different forms (salt, stereo form or complex); doses refer to the form tested. Some doses were run more than once; the values are given in rising order. Where survival is the endpoint, the PubChem record calls one and a half times the control and up active, and a quarter to a half above the control has no call in these data; cut-offs in other NCI protocols can differ. Some T/C values are followed by the survivors on the day toxicity was checked, most often the fifth; without a count, all were alive then.

System: P388 leukemia ip, CD2F1 mice, survival T/C
Assay: NCI In Vivo Anticancer Drug Screen. Data for tumor model P388 Leukemia (intraperitoneal) in CD2F1 (CDF1) mice
Settings: T/C endpoint: median survival time, higher T/C = longer survival
[1] = dose: 100.0 mg/kg/injection, schedule: Q01DX009 (ip), vehicle: saline with Tween-80
[2] = dose: 100.0 mg/kg/injection, schedule: Q01DX009 (ip), vehicle: saline
[3] = dose: 200.0 mg/kg/injection, schedule: Q01DX009 (ip), vehicle: saline
[4] = dose: 400.0 mg/kg/injection, schedule: Q01DX009 (ip), vehicle: saline
[5] = dose: 400.0 mg/kg/injection, schedule: Q04DX003 (ip), vehicle: saline
[6] = dose: 100.0 mg/kg/injection, schedule: Q01DX005 (ip), vehicle: saline with Tween-80
[7] = dose: 200.0 mg/kg/injection, schedule: Q01DX005 (ip), vehicle: saline with Tween-80
[8] = dose: 240.0 mg/kg/injection, schedule: Q01DX005 (ip), vehicle: saline with Tween-80

In the case of `CC(C)(C)OC(=O)O/N=C(\C#N)c1ccccc1`, the survivor count [1] is reported as 6 of 6.
In the case of `Nc1nc2c(ncn2C2OC(CO)C(O)C2O)c(=O)[nH]1.Nc1nc2c(ncn2C2OC(CO)C(O)C2O)c(=O)[nH]1.[NH2-].[NH2-].[Pt+2]` (stereo not given), the T/C (dose: 25.0 mg/kg/injection, schedule: Q01DX009 (ip), vehicle: water) is reported as 138 % of control [3 of 4 alive], the T/C [2] is reported as 137 % of control and the T/C [3] is reported as 126 % of control. The T/C (dose: 200.0 mg/kg/injection, schedule: Q01DX009 (ip), vehicle: water) was 129 % of control, the T/C [4] was 126 % of control and the survivor count (dose: 400.0 mg/kg/injection, schedule: Q01DX009 (ip), vehicle: water) was 3 of 4. The T/C [5] was 129 % of control and the T/C (dose: 800.0 mg/kg/injection, schedule: Q04DX003 (ip), vehicle: saline) was 129 % of control.
`COc1ccc(CC2C(=O)OC(C)C(NC(=O)C(CC(C)C)N(C)C(=O)C3CCCN3C(=O)C(C)O)C(=O)NC(C(C)C)C(O)CC(=O)OC(C(C)C)C(=O)C(C)C(=O)NC(CC(C)C)C(=O)N3CCCC3C(=O)N2C)cc1` (stereo not given) was tested, and the T/C (dose: 75.0 micrograms/kg/injection, schedule: Q01DX005 (ip), vehicle: distilled water + alcohol) was 128 and 131 % of control, the T/C (dose: 125.0 micrograms/kg/injection, schedule: Q01DX005 (ip), vehicle: distilled water + alcohol) was 131 and 141 % of control and the T/C (dose: 250.0 micrograms/kg/injection, schedule: Q01DX005 (ip), vehicle: distilled water + alcohol) was 148 % of control. The survivor count (dose: 500.0 micrograms/kg/injection, schedule: Q01DX005 (ip), vehicle: distilled water + alcohol) was 5 of 6 and the survivor count (dose: 1000.0 micrograms/kg/injection, schedule: Q01DX005 (ip), vehicle: distilled water + alcohol) was 1 of 6.
`COc1cc(NC(C)CCCNC(C)C)c2ncccc2c1` (stereo not given) was tested, and the survivor count (dose: 25.0 mg/kg/injection, schedule: Q01DX005 (ip), vehicle: saline with Tween-80) was 1 of 5, the survivor count (dose: 50.0 mg/kg/injection, schedule: Q01DX005 (ip), vehicle: saline with Tween-80) was 0 of 5 and the survivor count [6] was 0 of 5. The survivor count [7] was 0 of 5.
`O=C(O)c1cccc(C(=O)O)c1O` was tested, and the survivor count (dose: 400.0 mg/kg/injection, schedule: Q01DX001 (ip), vehicle: saline with Tween-80) was 0 of 6.
In the case of `CS(=O)(=O)OCCN(CCOS(C)(=O)=O)c1ccccc1`, the T/C (dose: 12.5 mg/kg/injection, schedule: Q04DX003 (ip), vehicle: saline) is reported as 140 % of control, the T/C (dose: 50.0 mg/kg/injection, schedule: Q04DX003 (ip), vehicle: saline) is reported as 131 % of control and the survivor count [2] is reported as 6 of 6.
With `CCCCCCCCCCCCCCC[N+]1([O-])CCOCC1` the survivor count [3] was 0 of 6.
`CC1(C)COCN1COCCOCN1COCC1(C)C` was tested, and the T/C (dose: 25.0 mg/kg/injection, schedule: Q01DX009 (ip), vehicle: saline) was 130 % of control, the T/C (dose: 50.0 mg/kg/injection, schedule: Q01DX009 (ip), vehicle: saline) was 146 % of control and the T/C [2] was 128 % of control. For the same compound, the survivor count [3] was 6 of 6.
For `Cc1nc2cc(N)c(Cl)cc2[nH]1`, the survivor count [8] was 0 of 6.
In the case of `COc1cc2c(cc1C[N+](C)(C)CSc1ccccc1)-c1ccccc1CC2`, the survivor count (dose: 10.0 mg/kg/injection, schedule: Q01DX005 (ip), vehicle: DMSO) is reported as 2 of 6 and 3 of 6, the survivor count (dose: 20.0 mg/kg/injection, schedule: Q01DX005 (ip), vehicle: DMSO) is reported as 0 of 6 and the survivor count (dose: 40.0 mg/kg/injection, schedule: Q01DX005 (ip), vehicle: DMSO) is reported as 0 of 6. For the same compound, the survivor count (dose: 80.0 mg/kg/injection, schedule: Q01DX005 (ip), vehicle: DMSO) was 0 of 6.
`CCN(CC)C/C(C)=C(/c1ccccc1)c1ccccc1S(N)(=O)=O` was tested, and the survivor count (dose: 400.0 mg/kg/injection, schedule: Q01DX001 (ip), vehicle: Klucel (hydroxypropylcellulose) (HPC)) was 0 of 6.
For `CCCCCCCCCCCCCCCCCC(=O)NC(CC(=O)OCCCCCC)c1ccc(N(CCCl)CCCl)cc1` (stereo not given), the T/C (dose: 2.15 mg/kg/injection, schedule: Q01DX009 (ip), vehicle: saline) was 145 % of control, the T/C (dose: 2.15 mg/kg/injection, schedule: Q03HX008 (ip), vehicle: saline) was 125 % of control and the T/C (dose: 4.3 mg/kg/injection, schedule: Q03HX008 (ip), vehicle: saline) was 140 % of control. For the same compound, the T/C (dose: 69.0 mg/kg/injection, schedule: Q03HX008 (ip), vehicle: saline) was 145 % of control [9 of 10 alive].
For `C/C=C\C1OC1(C)c1cc(=O)c2c(C)cc3c(c2o1)C(=O)c1c(O)c(C2CC(C)(N(C)C)C(OC(C)=O)C(C)O2)cc(C2CC(N(C)C)C(O)C(C)O2)c1C3=O` (stereo not given), the T/C (dose: 0.25 mg/kg/injection, schedule: Q01DX009 (ip), vehicle: saline + alcohol) was 131 % of control, the T/C (dose: 0.25 mg/kg/injection, schedule: Q01DX010 (ip), vehicle: saline) was 127 % of control [5 of 6 alive] and the T/C (dose: 0.5 mg/kg/injection, schedule: Q01DX009 (ip), vehicle: saline + alcohol) was 133 and 145 % of control. For the same compound, the T/C (dose: 0.5 mg/kg/injection, schedule: Q01DX010 (ip), vehicle: saline) was 140 % of control [5 of 6 alive] and the T/C (dose: 1.0 mg/kg/injection, schedule: Q01DX009 (ip), vehicle: saline + alcohol) was 140 % of control.
`NC(N)=NC(N)=Nc1ccc(Cl)c(Cl)c1` was tested, and the survivor count [1] was 3 of 6, the survivor count (dose: 200.0 mg/kg/injection, schedule: Q04DX003 (ip), vehicle: saline) was 4 of 6 and the survivor count [5] was 4 of 6.
For `COC(=O)C(N)Cc1ccc(O)c(O)c1` (stereo not given), the survivor count (dose: 12.5 mg/kg/injection, schedule: Q08HX028 (ip), vehicle: water) was 6 of 6, the survivor count (dose: 25.0 mg/kg/injection, schedule: Q08HX028 (ip), vehicle: water) was 6 of 6 and the T/C [4] was 131 and 142 % of control. The T/C (dose: 400.0 mg/kg/injection, schedule: Q08HX028 (ip), vehicle: water) was 138 % of control, the T/C (dose: 800.0 mg/kg/injection, schedule: Q01DX009 (ip), vehicle: saline) was 135 % of control and the T/C (dose: 800.0 mg/kg/injection, schedule: Q08HX028 (ip), vehicle: water) was 129 % of control. For the same compound, the survivor count (dose: 1600.0 mg/kg/injection, schedule: Q01DX009 (ip), vehicle: saline) was 1 of 6 and 2 of 6.
In the case of `Cc1ccc(C(C)C)c2c1CN(CCCN1COc3c(C(C)C)ccc(C)c3C1)CO2`, the survivor count [8] is reported as 6 of 6.
`O=C1c2ccccc2C(=O)N1O` was tested, and the survivor count [3] was 2 of 6.
`CC(NNC(=S)N(C)C1CCCCC1)c1nccc2ccccc12` (stereo not given) was tested, and the T/C (dose: 120.5 mg/kg/injection, schedule: Q01DX001 (ip), vehicle: Klucel (hydroxypropylcellulose) (HPC)) was 142 % of control [5 of 6 alive] and the survivor count (dose: 241.0 mg/kg/injection, schedule: Q01DX001 (ip), vehicle: Klucel (hydroxypropylcellulose) (HPC)) was 1 of 6.
`CO/N=C/c1ccc[n+](C)c1` was tested, and the survivor count [7] was 1 of 6.
With `CCOC(=O)Nc1nc2ccccc2n1CN1CCN(C)CC1` the survivor count (dose: 400.0 mg/kg/injection, schedule: Q01DX005 (ip), vehicle: Klucel (hydroxypropylcellulose) (HPC)) was 0 of 6.
For `N#Cc1ccc(N=Cc2ccc(C=Nc3ccc(C#N)c(C#N)c3)cc2)cc1C#N`, the survivor count (dose: 50.0 mg/kg/injection, schedule: Q01DX009 (ip), vehicle: saline with Tween-80) was 6 of 6.
`CC(=O)N(O)c1ccc2c(c1)Cc1cc(F)ccc1-2` was tested, and the T/C [6] was 125 % of control and the T/C [7] was 147 % of control.
In the case of `COC(=O)Nc1nc2ccc(C3(c4ccc(F)cc4)OCCO3)cc2[nH]1`, the T/C (dose: 40.0 mg/kg/injection, schedule: Q04DX003 (ip), vehicle: saline) is reported as 137 % of control, the survivor count (dose: 90.0 mg/kg/injection, schedule: Q04DX003 (ip), vehicle: saline) is reported as 9 of 9 and the T/C (dose: 100.0 mg/kg/injection, schedule: Q01DX009 (oral), vehicle: saline) is reported as 128 % of control. The survivor count (dose: 100.0 mg/kg/injection, schedule: Q04DX003 (ip), vehicle: saline) was 9 of 10.
